From PubChem BioAssay AID540256 (National Center for Advancing Translational Sciences (NCATS), 2011)
The campaign covered roughly 300,000 compounds. About 3,700 (1.2%) were called active. Inconclusive means that the source gave no clear call. Such entries were picked first, then a sample of the others. Calls come from the whole dose curve; tested in HEK293 cells. Potencies beside an inconclusive call are fits to weak or partial responses and may not hold up.

assay: qHTS for Inhibitors of binding or entry into cells for Lassa Virus; details: Lassa virus pseudotype entry inhibition, cell reporter; series mostly up to 37.9 µM; note: nearly all actives have a fitted effect of over 50% in size
Potency is the fitted concentration of half-maximal effect.

SMILES	Potency
Cc1ccc(C)c(N2C(=O)N(Cc3cccc(C(F)(F)F)c3)c3ccccc3S2(=O)=O)c1	inconclusive: 3.98 µM [activator, single point]
Cc1ccc(C)c(-n2c(CNC(=O)c3ccco3)nnc2SCC(=O)N2CCc3ccccc32)c1	inactive
Cc1ccc(/C=N/n2c(COc3ccccc3)n[nH]c2=S)s1	active: 6.51 µM
O=C(Nc1ccc(F)cc1F)c1cc(S(=O)(=O)N2CCCCC2)c[nH]1	inconclusive: 2.82 µM [inhibitor, full curve, poor fit]
O=C(Nc1nccs1)c1sc2cc(Cl)ccc2c1Cl	inconclusive: 3.55 µM [activator, single point]
CC(=O)c1cccc(NC(=O)C2CCCCC2)c1	inactive
S=c1[nH]ccn1Cc1ccccc1	inconclusive: 4.47 µM [inhibitor, single point]
COc1ccccc1C(=O)Oc1c(Sc2ccccc2)c(C)nn1-c1ccccc1	inconclusive: 10 µM [inhibitor, partial curve, poor fit]
Cc1ccc(SCCC(=O)OCC(=O)Nc2ncc(Cl)cc2Cl)cc1	inactive
COc1cccc(-c2nnn(CCC(=O)O)n2)c1	inactive
CC(C)Sc1nc(N2CCOCC2)c2c(c1C#N)CC(C)(C)N(C)C2	inactive
COc1cccc(/C=N/NC(=O)CN(CCc2ccccc2)S(=O)(=O)c2ccc(NC(C)=O)cc2)c1	inconclusive: 2.31 µM [inhibitor, full curve]
O=C(c1ccco1)N1CCCN(Cc2nc(-c3ccc4c(c3)OCO4)no2)CC1	inactive
O=C(Nc1cccc(Cl)c1)c1cc(-c2ccc3c(c2)OCO3)on1	inconclusive: 1 µM [activator, full curve, poor fit]
Cc1ccc(CCNC(=O)CN2C(=O)COc3ccc(S(=O)(=O)N4CCCCCC4)cc32)cc1	inactive
O=C1CCc2cc(NS(=O)(=O)c3ccccc3)cc3c2N1CCC3	inconclusive: 11.2 µM [inhibitor, single point]
O=C(Nc1ccc(Cl)cc1)NC1CCCCC1Cc1ccco1 (stereo unspecified)	inconclusive: 31.6 µM [inhibitor, single point]
O=C(Nc1ccc(Cl)cc1Cl)C1CCCO1 (stereo unspecified)	inconclusive: 1.26 µM [inhibitor, single point]
COc1ccc(O[C@H]2C=C[C@@H](c3ccccc3)O[C@@H]2COC(=O)CC/C(C)=N/O[C@H](C)c2cn([C@@H]3COC[C@H]3O)nn2)cc1	inconclusive: 16.4 µM [inhibitor, single point]
Cc1ccccc1N(C(=O)Cn1nnc(-c2cccs2)n1)C(C(=O)NCCC(C)C)c1ccco1 (stereo unspecified)	inconclusive: 14.1 µM [inhibitor, single point]
CC(C)c1ccc(OCc2ccc(C(=O)O)o2)cc1	active: 3.55 µM
CCCCCn1cnnc1SCC(=O)c1c(N)n(C2CC2)c(=O)[nH]c1=O	inconclusive: 11.2 µM [activator, partial curve, poor fit]
CC(OC(=O)C1CCC(=O)N1)C(=O)Nc1cc(Cl)cc(Cl)c1 (stereo unspecified)	inactive

As entered above.
Under Potency, S=c1[nH]ccn1Cc1ccccc1 shows inconclusive: 4.47 µM [inhibitor, single point]
Under Potency, Cc1ccc(CCNC(=O)CN2C(=O)COc3ccc(S(=O)(=O)N4CCCCCC4)cc32)cc1 shows inactive
Under Potency, Cc1ccc(C)c(N2C(=O)N(Cc3cccc(C(F)(F)F)c3)c3ccccc3S2(=O)=O)c1 shows inconclusive: 3.98 µM [activator, single point]

Remaining list, next part:

SMILES	Potency
CCCCCn1nc(C)c(/C=N\NC(=O)c2cc(C)oc2C)c1C	inactive
Fc1ccccc1-c1nc2ncccc2o1	inconclusive: 1.26 µM [inhibitor, single point]
COc1cccc(-n2nnc(-c3nc(-c4cccs4)no3)c2N)c1	inactive
Cc1ccc2nc(-c3cccc(S(=O)(=O)N(C)C)c3)cn2c1	inactive
CCCOc1cccc(C2c3c(-c4ccccc4O)n[nH]c3C(=O)N2Cc2ccco2)c1 (stereo unspecified)	inconclusive: 0.794 µM [inhibitor, full curve, poor fit]
CS(=O)(=O)Nc1cccc(-c2cnc3ccccc3n2)c1	inactive
O=C(COc1ccccc1)Nc1nc2cc3c(cc2s1)OCO3	inactive
CC(C)CCn1c(Oc2ccccc2F)nc2c1c(=O)n(C)c(=O)n2C	inactive
CS(=O)(=O)c1cccc(C(=O)OCC(=O)NC(=O)Nc2ccccc2F)c1	inconclusive: 12.6 µM [inhibitor, partial curve, poor fit]
O=C(CCC1CCCCC1)NC1=NCCS1	inconclusive: 1.26 µM [inhibitor, partial curve, poor fit]
Cc1ccc(C(=O)N/C(=C\c2ccc(Br)cc2)c2nc(=S)[nH][nH]2)cc1	inconclusive: 2.31 µM [inhibitor, full curve]
COc1cccc(/C=N/n2c(COc3ccccc3)n[nH]c2=S)c1	inconclusive: 20 µM [inhibitor, partial curve, poor fit]
CCCCN1C(=O)C(O)(CC(=O)c2ccco2)c2cc(Br)ccc21 (stereo unspecified)	inconclusive: 29.1 µM [inhibitor, single point]
COc1ccc(C(=O)NCC(=O)OCC(=O)N2N=C(c3ccc(Cl)cc3)CC2c2ccco2)cc1OC (stereo unspecified)	inconclusive: 29.1 µM [inhibitor, single point]
Cc1ccnc(NC(=O)c2ccc3c(c2)OCO3)c1	inconclusive: 10 µM [inhibitor, partial curve, poor fit]
Cc1ccc2[nH]cc(/C=C/c3cc[n+](C)cc3)c2c1	inconclusive: 10 µM [inhibitor, partial curve, poor fit]
CC(OC(=O)c1cccc(O)c1)C(=O)N(C)Cc1ccccc1 (stereo unspecified)	inconclusive: 3.55 µM [activator, partial curve, poor fit]
COc1ccc(CNC(=O)CSc2nnc(NC(=O)C3CC3)s2)cc1	inactive
Cc1ccccc1C(=O)c1c[nH]c(C(=O)NCCc2ccccn2)c1	inactive
Cc1ccc(CN2CC(C(=O)N3CC=C(c4ccccc4)CC3)CC2=O)cc1 (stereo unspecified)	inconclusive: 35.5 µM [inhibitor, partial curve, poor fit]
Cc1ccc(-n2ncc3c(N4CCCC4)ncnc32)c(C)c1	inactive
C=CCNC(=O)c1ccc(N(CC=C)S(C)(=O)=O)cc1	inconclusive: 3.26 µM [activator, full curve, poor fit]
O=C(Nc1ccccc1C(=O)N1CCN(c2cccc(Cl)c2)CC1)C1=CSCCO1	inconclusive: 17.8 µM [inhibitor, partial curve, poor fit]
